For at least one entry, the source does not settle the construct or the ends of the probe. A negative result means that nothing was seen under these conditions. Where a protein sequence is shown, tags need not be part of it.
Biological target: T1, MdNAC4-GST (Malus domestica) (UniProt B6DXL4)
T1 sequence (looked up): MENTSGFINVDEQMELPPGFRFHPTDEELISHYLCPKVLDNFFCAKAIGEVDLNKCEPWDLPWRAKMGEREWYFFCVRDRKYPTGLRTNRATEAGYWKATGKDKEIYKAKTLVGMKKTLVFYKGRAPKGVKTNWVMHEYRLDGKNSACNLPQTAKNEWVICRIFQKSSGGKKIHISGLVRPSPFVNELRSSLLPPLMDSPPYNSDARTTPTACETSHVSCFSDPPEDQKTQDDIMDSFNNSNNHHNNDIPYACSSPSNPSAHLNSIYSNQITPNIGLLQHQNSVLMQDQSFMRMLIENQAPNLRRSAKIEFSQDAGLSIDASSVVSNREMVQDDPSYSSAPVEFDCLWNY
Test: EMSA
Conditions: EMSA binding buffer (composition not given), 24 °C, 30 min in the dark; recombinant protein; residues 1-350; protein details: GST (pGEX-4T-1 type primers GST-MdNAC4-F/R)

## ATATAGGCCCGTCAAGGGAGGACAGAGATG / CATCTCTGGCCTGCCTTCACGTGCCTATAT [MdNYC1 Mut probe]
  binding result: no binding

— PMC9280364, “MdNAC4 Interacts With MdAPRR2 to Regulate Nitrogen Deficiency-Induced Leaf Senescence in Apple (Malus domestica)”
